{
  "source": "PubChem BioAssay AID493014",
  "about": "(National Center for Advancing Translational Sciences (NCATS), 2011)",
  "note": "The campaign covered roughly 340,000 compounds. About 170 (0.05%) were called active. Inconclusive results, whose numbers are uncertain, are shown with a selection of clear calls. The call rests on the fitted dose curve; in most records, active means well fitted inhibition curve with a large enough effect in the signal ratio, with a control signal flat (not every such curve was filed as active); inconclusive means small, poorly fitted or top-dose-only effect, or effect the other way, or a change in a side signal; inactive means flat fitted curve, though single readings scatter; the % refers to the signal ratio. Where the call is inconclusive, the potency comes from a doubtful curve fit. Potency means the concentration at half of the fitted maximal effect.",
  "data": [
    {"assay": "qHTS Assay to Find Inhibitors of Chronic Active B-Cell Receptor Signaling;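 on activity change, negative = inhibition: plate controls were basal doxycycline-induced cells for no effect and cells given 10 µM MG132 for full effect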", "conditions": "ABC-DLBCL IkBa-CBG/CBR reporter, luminescence ratio (green luciferase fused to IkBa over red control in TMD8 lymphoma cells), 4 h; activity change, negative = inhibition: at 46.1 µM (top of the series)", "in_short": "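Cell line TMD8 (human ABC DLBCL), stably expressing tet-inducible CBG68-IkBa fusion and CBR; IMDM/0.5% FBS; cpd up to 46 uM; dox induction, 4 h, 37C/5% CO2; dual luminescence; green/red ratio; MG132 control.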", "values": [
      {"compound": "CCOC(=O)C1CCN(C(=O)c2ccc3c(c2)C(=O)N(c2ccccc2C)C3=O)CC1", "activity change, negative = inhibition": "inactive"},
      {"compound": "CC(=O)N1CCC(O)(c2cccc(C(F)(F)F)c2)CC1", "activity change, negative = inhibition": "inconclusive: 4.61%"},
      {"compound": "Cc1cc(OCc2cccc(Cl)c2)c(C)cc1CN1CCOCC1", "activity change, negative = inhibition": "inconclusive: 14.9%"},
      {"compound": "O=[N+]([O-])c1ccccc1S(=O)(=O)c1ccccc1", "activity change, negative = inhibition": "inconclusive: 2.83%"},
      {"compound": "COc1ccc(NC(=O)CCNS(=O)(=O)c2cccc3nonc23)cc1Cl", "activity change, negative = inhibition": "inactive"},
      {"compound": "COc1cc(OC)cc(-c2nc3ccccc3s2)c1", "Potency": "inconclusive: 22.4 µM [falling, single point]"},
      {"compound": "Cc1oc(-c2cccs2)nc1CS(=O)CC(=O)NCCCOC(C)C", "note": "(centres undefined)", "activity change, negative = inhibition": "inconclusive: -5.76%"},
      {"compound": "Cc1ccc(/C=C/C(O)=C2/C(=O)N(C)C3(C)CC2c2ccccc2O3)cc1", "note": "(centres undefined)", "Potency": "inconclusive: 15.8 µM [falling, partial curve]"},
      {"compound": "COc1ccccc1OCC(=O)N/N=C1\\CCc2ccccc21", "activity change, negative = inhibition": "inconclusive: 15%"},
      {"compound": "OC(COCc1ccc(Cl)cc1)CN1CCN(c2ccccn2)CC1", "note": "(centres undefined)", "activity change, negative = inhibition": "inconclusive: 13.3%"},
      {"compound": "CCCn1c(=O)c2c(C(=O)OCC)cc(-c3ccco3)nc2n(CCC)c1=O", "activity change, negative = inhibition": "inactive"},
      {"compound": "CCOC(=O)c1cccc(C2=CC(=O)C[C@H](c3ccc(Cl)cc3)C2)c1", "activity change, negative = inhibition": "inconclusive: -11%"},
      {"compound": "Oc1ccc(Cl)cc1CNCC1CCCCC1", "activity change, negative = inhibition": "inactive"},
      {"compound": "COc1ccc(NC(=O)Cn2cc(C(=O)c3ccco3)c3ccccc32)cc1", "activity change, negative = inhibition": "inactive"},
      {"compound": "O=C(Nc1ccc(CN2CCCCC2)cc1)Nc1ccc(Br)cc1Cl", "activity change, negative = inhibition": "inactive"},
      {"compound": "COc1ccc(-c2[nH]ncc2/C=C(\\C#N)C(=O)NC2CC2)cc1", "Potency": "inconclusive: 29.1 µM [falling, single point]"},
      {"compound": "C=C(C)c1nc2cc(OC)c(OC)cc2c(=O)o1", "activity change, negative = inhibition": "inconclusive: -13.5%"},
      {"compound": "COCC(C)NC(=O)c1cc(-c2ccc(OC)c(OC)c2)on1", "note": "(centres undefined)", "Potency": "inconclusive: 20.6 µM [falling, single point]"},
      {"compound": "CN(C)c1nc(OCCOC(=O)c2ccccc2)nc(N(C)C)n1", "activity change, negative = inhibition": "inconclusive: 3.35%"},
      {"compound": "O=c1ccc(N=Nc2ccccc2)ccc1O", "activity change, negative = inhibition": "inconclusive: -4.79%"},
      {"compound": "COc1cc(C)c(S(=O)(=O)NOCc2ccccc2)c(C)c1C", "activity change, negative = inhibition": "inactive"},
      {"compound": "COc1cc2c(cc1OC)CN(CC(=O)Nc1ccccc1C#N)CC2", "Potency": "inconclusive: 0.092 µM [falling, full curve]"},
      {"compound": "O=C(OC(C(=O)Nc1ccc(Cl)cc1C(F)(F)F)c1ccccc1)c1c(Cl)cccc1Cl", "note": "(centres undefined)", "Potency": "inconclusive: 32.6 µM [rising, partial curve, poor fit]"},
      {"compound": "Nc1ccc2oc(CCc3ccccc3)nc2c1", "Potency": "inconclusive: 35.5 µM [falling, single point]"},
      {"compound": "O=C(c1ccc(-c2ccc(Cl)cc2Cl)o1)N1CCOCC1", "activity change, negative = inhibition": "inactive"},
      {"compound": "COc1ccc(C2SCCN2C(=S)Nc2cccc(C(F)(F)F)c2)cc1", "note": "(centres undefined)", "Potency": "inconclusive: 18.4 µM [falling, single point]"},
      {"compound": "COc1ccccc1Nc1nc(N)nc(CSC(=S)N2CCCCC2)n1", "activity change, negative = inhibition": "inconclusive: -25.9%"},
      {"compound": "CCCn1nc(NC(=O)c2ccco2)c2cc3cc(C)ccc3nc21", "activity change, negative = inhibition": "inactive"},
      {"compound": "Cn1cc(Cl)c(C(=O)Nc2nc3ccc(Cl)cc3s2)n1", "Potency": "inconclusive: 2.51 µM [falling, full curve, poor fit]"},
      {"compound": "Cc1ccccc1NC(=O)C(=O)NC(C)CCc1ccccc1", "note": "(centres undefined)", "activity change, negative = inhibition": "inconclusive: -8.04%"},
      {"compound": "CCOC(=O)CCCNC(=O)CN1C(=O)NC(c2ccccc2)(c2ccccc2)C1=O", "activity change, negative = inhibition": "inactive"},
      {"compound": "Cc1cccc(C(=O)O[C@H]2[C@H](Cc3ccccc3)NS(=O)(=O)[C@H]3CC4C=C[C@]23O4)c1", "activity change, negative = inhibition": "inactive"},
      {"compound": "COc1ccc(S(=O)(=O)Nc2ccc(OCC(=O)O)cc2)c2ccccc12", "activity change, negative = inhibition": "inconclusive: -5.13%"},
      {"compound": "COc1ccc(C2c3sc(=O)[nH]c3SC3C4CCC(C4)C23)cc1", "note": "(centres undefined)", "activity change, negative = inhibition": "inconclusive: 9.32%"},
      {"compound": "COC1=CC(=O)OC12CCCCC2", "activity change, negative = inhibition": "inactive"},
      {"compound": "O=C1c2ccccc2NC(c2ccc(-c3cccc(F)c3)o2)N1O", "note": "(centres undefined)", "Potency": "inconclusive: 20.6 µM [falling, partial curve]"},
      {"compound": "CN(C)c1ncc(S(=O)(=O)c2ccccc2)c(N)n1", "activity change, negative = inhibition": "inconclusive: -4.43%"},
      {"compound": "Cc1cc(C(=O)NNCc2ccccc2)no1", "activity change, negative = inhibition": "inconclusive: 3.22%"},
      {"compound": "COc1ccc(-c2cc(N)n(S(=O)(=O)c3c(F)c(F)c(F)c(F)c3F)n2)cc1OC", "Potency": "inconclusive: 35.5 µM [falling, single point]"}
    ]}
  ]
}
